Results published in PubChem BioAssay AID1508642 (National Center for Advancing Translational Sciences (NCATS), 2021).
About 200 (0.47%) of roughly 43,000 compounds were called active. Listed are the inconclusive results; actives and inactives stand elsewhere. Calls follow the shape of the dose curve; as a rule, active = well fitted cell-killing curve with a large enough effect; inconclusive = small, poorly fitted or top-dose-only effect, or effect the other way; inactive = flat fitted curve, though single readings scatter. Some tests of the compounds listed are not included; inactive here does not mean inactive elsewhere.

Test: Cell viability qHTS assay in S16 Pmp22-F2sN cells
Settings: S16 Pmp22-F2sN Schwann cells (luciferase reporters placed in the Pmp22 gene) viability, CellTiter-Glo, 24 h
From the text: Assay Provider: Jim Inglese Ph.D. National Center for Advancing Translational Science, National Institutes of Health, Rockville, MD CMT is a heterogeneous group of neurological disorders that affect approximately 1 in 2,500 people. In particular, the most common form of CMT, CMT1A is genetically linked to the duplication of the PMP22 gene which leads to Schwann cell overexpression, thus manifesting itself as a typical case of dose-sensitive diseases. […] We can further discriminate the effect of all transcriptionally active molecules on PMP22 translation or stability with an assay that incorporates a short NLuc peptide (HiBiT) at the C-terminus of expressed PMP22 (S16(f8) PMP22-HiBiT) allowing alpha complementation and luminescence detection of membrane-associated PMP22 protein. […] Miniaturization of these assays to 1536-well plate format for quantitative high throughput screening (qHTS) yielded rich data sets immediately from the qHTS assay (S16(c9) Pmp22-F2sN), when compared with data from a cell viability assay (Cell TiterGlo) to identify compounds that decreased the output signals through cellular toxicity to streamline the selection process of actives for subsequent characterization using the HiBiT assay (S16(f8) PMP22-HiBiT). […]

SMILES	outcome
CC(C)COc1ccc(C(=O)NCC2(N(C)C)CCCCC2)cc1	inconclusive
